No constants are given. Whether binding was seen depends on the method and setting. Some binding calls cover weakened binding; strength is not graded here. For some assays here: Sequences can lack the tags named with a protein.
Legend:
[1] = biological target: T1, Recombinant human ActRIIB-Fc (human) (UniProt Q13705); assay: SPR; ActRIIA-Fc or ActRIIB-Fc captured on a Series S Protein A chip (~70 RU); ActE titrated, 10-step two-fold dilution from 100 nM; HBS-EP+ (20 mM HEPES, 500 mM NaCl, 3.4 mM EDTA, 0.05% P-20, 0.5 mg/ml BSA), 25 C, Biacore T200, 50 ul/min; steady state fit; both purified
T1 sequence: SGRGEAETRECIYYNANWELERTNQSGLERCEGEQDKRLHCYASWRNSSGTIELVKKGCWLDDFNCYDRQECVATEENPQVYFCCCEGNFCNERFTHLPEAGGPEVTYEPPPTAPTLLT

Chains of the proteins cited; added tags and fusions are not shown.
UniProt P27037: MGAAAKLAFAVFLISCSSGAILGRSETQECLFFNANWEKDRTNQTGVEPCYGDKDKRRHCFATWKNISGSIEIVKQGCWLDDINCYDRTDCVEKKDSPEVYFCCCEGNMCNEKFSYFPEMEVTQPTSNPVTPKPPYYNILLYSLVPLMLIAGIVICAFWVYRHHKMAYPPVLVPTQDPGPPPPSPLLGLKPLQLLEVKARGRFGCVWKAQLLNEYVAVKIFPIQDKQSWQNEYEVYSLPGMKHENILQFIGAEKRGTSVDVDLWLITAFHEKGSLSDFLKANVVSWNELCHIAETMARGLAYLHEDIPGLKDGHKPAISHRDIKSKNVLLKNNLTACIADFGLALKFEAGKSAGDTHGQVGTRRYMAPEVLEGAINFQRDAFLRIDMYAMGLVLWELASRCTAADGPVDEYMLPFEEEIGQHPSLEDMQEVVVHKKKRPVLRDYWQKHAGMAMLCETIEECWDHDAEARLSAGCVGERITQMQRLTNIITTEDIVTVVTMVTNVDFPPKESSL

[2] = biological target: Recombinant human ActRIIA-Fc (human) (UniProt P27037); assay: as above

- binding [1]: binds weakly
- binding [2]: binds weakly
B1: Recombinant human ActE (bacterially derived, provided by R&D Systems) (ligand, UniProt P58166 237-350)
chain: TPTCEPATPLCCRRDHYVDFQELGWRDWILQPEGYQLNYCSGQCPPHLAGSPGIAASFHSAVFSLLKANNPWPASTSCCVPTARRPLSLLYLDHNGNVVKTDVPDMVVEACGCS

Reference: article PMC11088876
